In this experiment the target is recombinant cynomolgus monkey 4-1BB protein (cynomolgus monkey). Kind of experiment: ELISA, plates coated with recombinant 4-1BB, detection with goat α-human Fcγ-HRP. In general terms: ELISA stands for enzyme-linked immunosorbent assay.

Results are given in words; binding and its absence hold for the method and conditions named. A result given as binding can be weak or reduced; the word gives no strength.

B1: AG10058 IgG (IgG4; parent IgG of Fab #3) (antibody, V domains shown)
VH: EVQLVESGGGLVQPGGSLRLSCAASGFSLSTSGVGVGWIRQAPGKGLEWLALIDWDDDKYYSPSLKSRLTISRDNSKNTLYLQLNSLRAEDTAVYYCARGGSDTVLGDWFAYWGQGTLVTVSS
VL: DIQLTQSPSSLSASVGDRVTITCRASQSVSPYLAWYQQKPGKAPKLLIYDASSLESGVPSRFSGSGSGTDFTLTISSLQPEDFATYYCQQGYSLWTFGQGTKVEIK
notes: also called Fab #3 IgG
Regarding B1, the binding result is listed as “binds”.

(Values after patent US20260209370A1 (RADIANT BIOTHERAPEUTICS, published 2026).)
